Laboratory results: PubChem BioAssay AID720533 (National Center for Advancing Translational Sciences (NCATS), 2013)
Where “and” joins values, the source holds several entries; their conditions need not be identical. Identical values can stand only once. The whole screen tested about 18,000 compounds, of which about 750 (4.2%) were called active. This list was built around the results that the source calls inconclusive (neither active nor inactive); the mix of calls is not that of the screen. Calls come from the whole dose curve; tested in HEK293 cells. Potencies of inconclusive entries are doubtful fits and often do not repeat.
% is set by controls: 0 for no effect and ±100 for the full control effect; potency is the fitted concentration of half-maximal effect.

Assay: qHTS for Inhibitors of binding or entry into cells for Lassa Virus
Details: Lassa virus pseudotyped entry inhibition, cell-based qHTS; activity change, negative = inhibition: at 49.2 µM (top of the series) unless noted
In the case of `CC(C)CNc1ccc2c(c1)OC[C@H](CC(C)C)NS2(=O)=O`, the “activity change, negative = inhibition” value is reported as inactive: -2.32%. With `COc1cc2c(cc1OC)C(C)NCC2` (configuration not stated) the Potency was “inactive”. In the case of `C=C(C)[C@H]1O[C@H]2CC[C@@]3(C)[C@@](O)(CC[C@H]4[C@@H]5OC(C)(C)[C@H]6C[C@@H]7C(=C)Cc8c(Cl)cc9[nH]c(c5c9c8[C@@]76O)[C@@]43C)[C@]23O[C@@H]3[C@H]1O`, the Potency is reported as active: 25.1 µM. In the case of `O=C(O)c1cc(=O)c2c3nc4ccccc4oc-3cc(=O)c2[nH]1`, the Potency is reported as inconclusive: 6.31 µM [inhibitor, full curve, poor fit]. In the case of `CN1CCN(C2=Nc3ccccc3Sc3ccc(Cl)cc32)CC1`, the Potency is reported as inconclusive: 35.5 µM [inhibitor, single point]. In the case of `COc1ccc2oc(-c3ccc(O)cc3)cc(=O)c2c1`, the Potency is reported as inconclusive: 25.1 µM [inhibitor, partial curve]. With `COc1cccc2c1C(=O)c1c(O)c3c(c(O)c1C2=O)C[C@](O)(C(C)=O)C[C@H]3O[C@@H]1C[C@H](N)[C@H](O)[C@H](C)O1` the Potency was active: 1 µM. With `COc1cccc(-n2ncc3c(NN=Cc4ccc(C)cc4)ncnc32)c1` the Potency was inconclusive: 0.0141 µM [inhibitor, full curve, poor fit]. For `O=C(C=NO)NCCCCNC(=O)C=NO`, the activity change, negative = inhibition was inactive: 12.7% [at 8.59 µM]. For `COC(=O)c1cc(CNC(=O)c2ccccc2OC)cc(NC(=O)c2ccccc2F)c1`, the Potency was inconclusive: 0.794 µM [inhibitor, full curve, poor fit]. In the case of `C[C@@H]1O[C@@H](O[C@H]2CC[C@@H](O[C@H]3[C@H](O)C[C@H](c4ccc5c(c4O)C(=O)C4=C(C5=O)[C@@]5(O)C(=O)C[C@](C)(O[C@H]6CC[C@H](O[C@H]7C=CC(=O)[C@H](C)O7)[C@H](C)O6)C[C@@]5(O)C=C4)O[C@@H]3C)O[C@H]2C)C=CC1=O`, the Potency is reported as inconclusive: 35.5 µM [inhibitor, single point]. With `CCC1=C[C@@H]2CN(C1)Cc1c([nH]c3ccccc13)[C@@](C(=O)OC)(c1cc3c(cc1OC)N(C)[C@H]1[C@@](O)(C(=O)OC)[C@H](OC(C)=O)[C@]4(CC)C=CCN5CC[C@]31[C@@H]54)C2` the Potency was active: 12.6 µM. In the case of `COC(=O)[C@@H]1[C@@H](c2ccccc2)NC(=O)N(CCc2cc(OC)c(OC)c(OC)c2)[C@@H]1C`, the activity change, negative = inhibition is reported as inactive: -7.49% [at 8.59 µM]. With `COc1ccc(-c2ccnc(-n3ncc(C(=O)NCc4cccnc4)c3C3CC3)n2)cc1F` the Potency was inconclusive: 2.24 µM [inhibitor, full curve]. With `COc1cc2ncn(-c3cc(OCc4ccccc4Cl)c(C(N)=O)s3)c2cc1OC` the Potency was inconclusive: 0.628 µM [inhibitor, full curve, poor fit]. With `FC(F)(F)c1cc(CO[C@H]2CCCN[C@H]2c2ccccc2)cc(C(F)(F)F)c1` the Potency was active: 25.1 µM. With `O=C(N/N=C/c1ccccc1O)c1ccncc1` the Potency was active: 10 µM. In the case of `O=c1n(CC2CO2)c(=O)n(CC2CO2)c(=O)n1CC1CO1` (configuration not stated), the Potency is reported as inconclusive: 3.16 µM [inhibitor, full curve]. For `C/C=C(\C=C\[C@@H](C)C/C=C/CC/C=C/C=C\C[C@@H](OC)/C(C)=C\C=C(C)C)CC(=O)O`, the “activity change, negative = inhibition” value was inactive: -13.1%. For `CN1CCN(C(c2ccccc2)c2ccc(Cl)cc2)CC1` (configuration not stated), the Potency was inconclusive: 11.2 µM [inhibitor, single point]. With `CCc1oc2ccccc2c1C(=O)c1cc(I)c(O)c(I)c1` the Potency was inconclusive: 22.4 µM [inhibitor, partial curve, poor fit]. In the case of `NS(=O)(=O)c1ccc(N=Nc2c(O)[nH]c3ccc(-c4cnco4)cc23)cc1`, the Potency is reported as inconclusive: 0.445 µM [inhibitor, full curve, poor fit]. For `COc1ccc(CC(N)C(=O)NC2C(O)[C@H](n3cnc4c(N(C)C)ncnc43)O[C@@H]2CO)cc1` (some centres not stated), the Potency was active: 3.98 µM. In the case of `CN(C)C(=S)SSC(=S)N(C)C`, the Potency is reported as inconclusive: 25.1 µM [inhibitor, partial curve, poor fit] and inconclusive: 1.12 µM [inhibitor, full curve, poor fit]. With `CN(Cc1ccccc1)C(=O)[C@H](Cc1ccc2ccccc2c1)NC(=O)[C@@H]1C[C@@H](O)CN1C(=O)c1cn(C)c2ccccc12` the Potency was inconclusive: 12.6 µM [inhibitor, partial curve]. With `COc1cc2c(cc1OC)[C@@H]1C(=O)c3ccc4oc(C(C)C)cc4c3OC1CO2` (some centres not stated) the Potency was inconclusive: 17.8 µM [inhibitor, single point]. For `Cc1ccc([C@H]2C[C@@H](n3cc(-c4ccc(F)cc4)nn3)[C@H](O)CN2CC2CCCCC2)cc1`, the Potency was inconclusive: 28.1 µM [inhibitor, single point]. With `CC(C)C(NC(=O)c1ccoc1)c1nnc2n1CCN(C(=O)/C=C/c1ccc(F)cc1)CC2` (configuration not stated) the “activity change, negative = inhibition” value was inactive: -8.25%. For `CC1CC[C@@]2(NC1)O[C@@H]1C[C@H]3C4CC=C5C[C@@H](O)CC[C@]5(C)C4CC[C@]3(C)[C@H]1[C@@H]2C` (some centres not stated), the “activity change, negative = inhibition” value was inactive: 2.87%. For `CCCCCCN1C[C@@H](n2cc(-c3ccc(F)cc3)nn2)[C@H](O)C[C@H]1c1ccccc1`, the Potency was inconclusive: 19.9 µM [inhibitor, partial curve, poor fit]. With `COc1cc(C=NNc2ncnc3c2cnn3-c2ccccc2)ccc1O` the Potency was inconclusive: 15.8 µM [inhibitor, partial curve, poor fit]. With `CNCCC=C1c2ccccc2CCc2ccccc21` the Potency was active: 31.6 µM. In the case of `CCOC(=O)C(CCc1ccccc1)NC(C)C(=O)N1CCCC1C(=O)O` (configuration not stated), the “activity change, negative = inhibition” value is reported as inactive: 3.53%. In the case of `C=C(C[C@]1(C(=O)OC)CC2(CC=C(C)C)C(=O)C(C(=O)CC(C)C)=C(O)C(CC=C(C)C)(C1)C2=O)C(=O)OC` (some centres not stated), the Potency is reported as inconclusive: 7.08 µM [inhibitor, full curve]. In the case of `CN1[C@@H]2CC[C@H]1CC(OC1c3ccccc3CCc3ccccc31)C2` (some centres not stated), the Potency is reported as inconclusive: 10 µM [inhibitor, partial curve, poor fit]. For `COCOCCn1cc(CN2CCS(=O)(=O)N(Cc3ccc(-c4ccc(Cl)nc4)cc3)C(C)C2=O)nn1` (configuration not stated), the “activity change, negative = inhibition” value was inactive: -12.4%. In the case of `CN(Cc1cccc2ncccc12)C(=O)c1cnn(-c2ncc3c(n2)-c2ccccc2CC3)c1C1CC1`, the Potency is reported as inconclusive: 35.5 µM [inhibitor, single point]. For `C[C@H]1[C@@H](OC(=O)CCC(=O)O)O[C@@H]2OC3(C)CC[C@H]4[C@H](C)CC[C@@H]1[C@@]24OO3`, the Potency was inconclusive: 1 µM [inhibitor, full curve]. In the case of `C[C@@]1(CO)[C@H](O)CC[C@@]2(C)[C@H]1CC[C@H]1C[C@@H]3C[C@@]12CC[C@]3(O)CO`, the Potency is reported as inconclusive: 39.8 µM [inhibitor, partial curve]. With `C=C1Cc2c(Cl)cc3[nH]c4c5c3c2[C@@]2(O)[C@@H]1C[C@@H]2C(C)(C)O[C@H]5[C@@H]1CC[C@@]2(O)[C@@]35O[C@@H]3[C@@H](O)[C@@H](C(=O)O)O[C@H]5CC[C@]2(C)[C@@]41C` the Potency was active: 28.2 µM. In the case of `C[C@@H]1N[S+](=O)([O-])c2cccc(Cl)c2O[C@H]1c1ccccc1`, the activity change, negative = inhibition is reported as inconclusive: 1.55% [inhibitor]. For `Cc1ncc2c(c1CNC(=O)c1ccc3c(c1)OCO3)CCN(C(=O)c1cn3ccccc3n1)C2`, the Potency was inconclusive: 35.5 µM [inhibitor, partial curve, poor fit]. With `O=C(Nc1n[nH]c2cc(-c3cc(F)ccc3F)ccc12)C1CC1` the Potency was inconclusive: 25 µM [inhibitor, single point]. For `CC(=O)N[C@@H](CSC/C=C(\C)CCC=C(C)C)C(=O)O`, the Potency was “inactive”. In the case of `CC1=CC[C@@H](COc2ccccc2)O[C@@]2(C1)C(=O)N(Cc1ccc(Br)cc1)c1cccc(Br)c12`, the activity change, negative = inhibition is reported as inactive: 10.3% [at 8.59 µM]. For `CN(C)CCC1(c2ccc(Cl)cc2)Cc2ccccc2C(=O)O1` (configuration not stated), the Potency was “inactive”. With `COC(=O)c1cc(CNC(=O)c2cccc(F)c2)cc(NC(=O)c2ccccc2OC)c1` the Potency was inconclusive: 35.5 µM [inhibitor, single point]. With `NC[C@@H]1O[C@H](O[C@H]2[C@H](O)[C@@H](O[C@H]3[C@H](O)[C@H](N)C[C@H](N)[C@H]3O[C@@H]3O[C@H](CO)[C@@H](O)[C@H](O)[C@@H]3N)O[C@H]2CO)[C@@H](N)[C@H](O)[C@@H]1O` the “activity change, negative = inhibition” value was inactive: 0.619% [at 17.8 µM]. With `C[C@H]1C[C@H]2[C@@H]3CCC4=CC(=O)C=C[C@]4(C)[C@@]3(Cl)[C@@H](O)C[C@]2(C)[C@@]1(O)C(=O)CO` the Potency was inconclusive: 35.5 µM [inhibitor, single point]. For `CN1CCN(c2ccc(Nc3c4ccccc4nc4ccccc34)cc2)CC1`, the Potency was inconclusive: 17.8 µM [inhibitor, single point]. In the case of `CCN1C(=O)[C@@H]2[C@H]3[C@H](O)[C@H](O)CC(=NOCC[C@@H]4C=C[C@H](OC(C)=O)[C@@H](COC(C)=O)O4)[C@@H]3CC[C@H]2C1=O`, the activity change, negative = inhibition is reported as inactive: -1.39% [at 8.59 µM]. For `O=c1c(O)c(-c2ccccc2O)oc2cc(O)cc(O)c12`, the “activity change, negative = inhibition” value was inactive: -7.03%. In the case of `COc1ccc(OC)c(CN2CCOc3ccc(CN4CCC(O)(c5cccnc5)CC4)cc3C2)c1`, the “activity change, negative = inhibition” value is reported as inactive: -14.1%. With `Cn1cc(C(=O)OCC2CCN(CCNS(C)(=O)=O)CC2)c2ccccc21` the “activity change, negative = inhibition” value was inactive: 1.8%. With `COc1ccc(COC(=O)NN=C2C[C@@H](O)[C@@H](O)[C@@H]3[C@H]4C(=O)N(Cc5ccccc5)C(=O)[C@@H]4CC[C@@H]23)cc1` the Potency was inconclusive: 0.299 µM [inhibitor, full curve]. For `O=C(NCC1CCC2(CCN(Cc3cc4ccccc4o3)CC2)O1)c1ccccc1` (configuration not stated), the “activity change, negative = inhibition” value was inactive: 1.93%. For `Cc1oc(-c2cccc(NC(=O)c3ccccn3)c2)nc1CNC(=O)C#Cc1ccccc1`, the Potency was inconclusive: 35.5 µM [inhibitor, single point].
